# The list shows a part of the results. Further columns of the screen follow, without active or inactive calls. Most of these compounds were active or inconclusive in the main read-out, so they are no random draw. Potencies come from curve fits of mixed quality, noted in brackets.
# Assay: IkB Signaling
# Conditions: ABC-DLBCL IkBa-CBG/CBR dual luciferase ratio (green luciferase fused to IkBa over red control in OCI-Ly3 lymphoma cells), 4 h
# In short: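 Curves were fitted separately to fusion (green), unfused (red) and ratio luminescence, then classed by r2, magnitude and activity. Cells: OCI-Ly3, 4 h compound plus doxycycline at 37C; 10 uM MG-132 defined full response.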
# [1] = measured here: control luc red channel unless noted
smiles,measurement,setting,value
COc1ccc(-c2ccc(CCC(=O)O)n2CC(=O)Nc2cccc(Cl)c2C)cc1,AC50,[1],"12.6 µM [falling, single point]"
Cc1c(C(=O)N(Cc2ccc(N(C)C)cc2)Cc2ccco2)oc2cc(Br)ccc12,AC50,[1],"20 µM [falling, single point]"
COc1ccc(CNC(=O)CCc2c(C)nc3nc(CNC(=O)OC(C)(C)C)nn3c2C)cc1,AC50,[1],"20 µM [falling, single point]"
O=C(CN1C(=O)CC(c2ccco2)Sc2ccccc21)Nc1ccc(Br)cc1 (centres undefined),AC50,[1],"0.1 µM [falling, full curve]"
COc1cccc(CN2C(=O)C3(SCC(=O)N3c3ccc(C(C)C)cc3)c3ccccc32)c1 (centres undefined),AC50,[1],"10 µM [falling, partial curve]"
NC(=O)CSc1nnnn1-c1cccc(O)c1,AC50,[1],"3.16 µM [rising, single point]"
O=c1cc(-c2ccccc2)nc(N2CCN(Cc3ccc4c(c3)OCO4)CC2)[nH]1,AC50,[1],"12.6 µM [falling, partial curve]"
O=C(c1ccc2c(c1)OCCO2)N(Cc1cccnc1)c1nc2c(F)cc(F)cc2s1,AC50,[1],"31.6 µM [falling, partial curve]"
COc1cccc(CNS(=O)(=O)c2ccc(-c3cc(C(F)(F)F)on3)s2)c1,AC50,[1],"2 µM [falling, full curve]"
CCOC(=O)c1ccc(N2C(=O)Cc3cc(OCC)c(OCC)cc3C2c2ccccc2)cc1 (centres undefined),AC50,[1],"31.6 µM [falling, single point]"
CCS(=O)(=O)Nc1ccc(-c2nnc(SCC(=O)OC)o2)cc1,AC50,[1],"5.01 µM [falling, partial curve]"
O=C(OCC(=O)N1CCN(C(=O)c2ccco2)CC1)c1cc(-c2ccc(F)cc2)nc2ccccc12,AC50,[1],"7.94 µM [falling, partial curve]"
Cc1ccccc1-c1nc(SCC(=O)NCC2CCCO2)c2c(=O)n(C)c(=O)n(C)c2n1 (centres undefined),AC50,[1],"31.6 µM [falling, single point]"
COCCNC(=O)c1ccc2c(=O)n(CCOC)c(SCC(=O)c3c[nH]c4ccccc34)nc2c1,AC50,[1],"15.8 µM [falling, partial curve]"
Cc1cccc(CCNC(=O)CCc2c(C)nc3ncnn3c2C)c1,AC50,[1],"20 µM [falling, partial curve]"
O=C(c1ccco1)N1CCN(CC(O)COc2ccc3oc4ccccc4c3c2)CC1 (centres undefined),AC50,[1],"15.8 µM [falling, partial curve]"
OC(CN1CCN(c2ccccc2)CC1)c1c[nH]c2ccccc12 (centres undefined),AC50,[1],"15.8 µM [falling, partial curve]"
COc1ccc(-n2nnnc2SCC(=O)Nc2ccc3c(c2)OCCO3)c(OC)c1,AC50,[1],"31.6 µM [falling, partial curve]"
COc1ccc(S(=O)(=O)Nc2cc3c(cc2N2CCOCC2)n(C)c(=O)n3C)cc1,AC50,[1],"15.8 µM [rising, partial curve]"
COc1cccc(NC(=O)c2ccc3[nH]c(C)cc(=O)c3c2)c1,AC50,[1],"39.8 µM [falling, single point]"
COc1ccc2[nH]cc(CCNc3nc(-c4c(C)noc4C)nc4ccccc34)c2c1,AC50,[1],"3.98 µM [falling, partial curve] [measured here: IkB-luc green channel]"
COC(=O)c1ccc(Cn2nc(-c3ccc(C)cc3)ccc2=O)cc1,AC50,[1],"20 µM [falling, single point]"
Cc1ccc(-n2c(SCC(=O)Nc3ccc4c(c3)OCCO4)nc3c([nH]c4ccccc43)c2=O)cc1,AC50,[1],"10 µM [rising, partial curve]"
Cn1c(SCc2ccccc2)nnc1-c1cccs1,AC50,[1],"20 µM [falling, single point]"
C=CCN(CC=C)CC(O)Cn1c2ccccc2c2ccccc21 (centres undefined),AC50,[1],"25.1 µM [falling, partial curve]"
COCCNC(=O)c1ccc(-c2nc(CN3CCc4ccccc43)c(C)o2)cc1,AC50,[1],"39.8 µM [rising, partial curve]"
CCCCNC(=O)Cn1cnc2sc(C)c(S(=O)(=O)N3CCN(c4ccccc4OC)CC3)c2c1=O,AC50,[1],"0.0794 µM [falling, full curve, poor fit]"
Cc1ccc(C)c2[nH]c(=O)c(CN(Cc3ccc4c(c3)OCO4)Cc3nnnn3Cc3ccco3)cc12,AC50,[1],"12.6 µM [falling, partial curve]"
CCOc1ccc2nc(NC(=O)c3ccccc3)sc2c1,AC50,[1],"0.2 µM [falling, full curve]"
O=C(Cn1ncc2c3ccccc3n(Cc3ccccc3F)c2c1=O)NCCCc1ccccc1,AC50,[1],"39.8 µM [rising, single point]"
CC1=CCC(COC(=O)Nc2ccccc2)CC1 (centres undefined),AC50,[1],"12.6 µM [falling, partial curve]"
CCOc1ccccc1C(=O)N(Cc1ccco1)Cc1ccccc1F,AC50,[1],"12.6 µM [falling, partial curve]"
Cc1ccc(C(=O)Nc2ccc(Br)cc2)cc1S(=O)(=O)NCc1ccccc1,AC50,[1],"10 µM [falling, partial curve]"
COc1ccccc1Cn1c(SCC(=O)C(C)(C)C)nc2ccccc2c1=O,AC50,[1],"39.8 µM [falling, single point]"
CCOC(=O)c1c(C)oc2nc(C)nc(N3CCN(c4ccc(OC)cc4)CC3)c12,AC50,[1],"20 µM [falling, partial curve]"
CCNC(=O)C1CCN(Cc2cc3ccccc3n2Cc2ccc(C)cc2)CC1,AC50,[1],"39.8 µM [falling, single point]"
COC(=O)CN1C(C(=O)c2ccccc2)=C(OC(=O)c2ccc(C)cc2)c2ccccc2S1(=O)=O,AC50,[1],"20 µM [falling, single point]"
Cc1nn(-c2ccccc2)c2nc(N)c(C#N)c(-c3ccc(F)cc3)c12,AC50,[1],"20 µM [falling, partial curve]"
COc1ccccc1-n1c(CNC(=O)COc2ccccc2)n[nH]c1=S,AC50,[1],"0.794 µM [falling, full curve]"
Cc1oc(-c2cccc(Cl)c2)nc1CSCC(=O)NCc1ccccc1Cl,AC50,[1],"25.1 µM [falling, single point]"
COc1ccc(Cl)cc1C1CC(=O)Nc2cc3c(cc21)OCCO3 (centres undefined),AC50,measured here: IkB-luc green channel,"3.16 µM [rising, partial curve]"
same,AC50,measured here: control luc red channel,"39.8 µM [falling, single point]"
CCc1cccc(NC(=O)Cn2ncc3c([nH]c4ccc(C)cc43)c2=O)c1,AC50,[1],"6.31 µM [rising, full curve]"
CCOc1ccccc1NC(=O)CCc1c(C)nc2c3cccnc3nn2c1C,AC50,[1],"6.31 µM [falling, partial curve]"
O=C(NCc1ccc(F)cc1)c1ccc(CS(=O)(=O)Cc2ccccc2F)o1,AC50,[1],"20 µM [falling, partial curve]"
COc1ccc(C(=O)Nc2ccc(Cl)cn2)cc1Cl,AC50,[1],"20 µM [falling, single point]"
COc1cccc(C(=O)NCCc2csc(-c3cccc(F)c3)n2)c1OC,AC50,[1],"25.1 µM [falling, single point]"
CCc1cccc(NC(=O)CN(c2ccc(C)cc2)S(=O)(=O)c2cccs2)c1,AC50,[1],"10 µM [falling, partial curve]"
Cc1csc(NC(=O)c2ccoc2C)n1,AC50,[1],"12.6 µM [falling, partial curve]"
COc1ccc(-c2nc3ccccc3s2)cc1NC(=O)COc1cccc(C)c1,AC50,[1],"0.398 µM [rising, single point]"
COc1c(C)cc(Br)cc1C(=O)Nc1cccc(-c2nc3ncccc3o2)c1,AC50,[1],"3.16 µM [falling, full curve, poor fit]"
O=C(Cn1c(=O)n(CCCS(=O)(=O)C2CCCCC2)c(=O)c2ccccc21)Nc1ccc(F)c(Cl)c1,AC50,[1],"6.31 µM [falling, partial curve]"
CC(C)(C)n1nnnc1C(c1cccs1)N(Cc1ccccc1)Cc1ccco1 (centres undefined),AC50,[1],"25.1 µM [falling, partial curve]"
O=C(c1cnc(N2CCCCC2)c2ccccc12)N1CCN(c2cccc(Cl)c2)CC1,AC50,[1],"39.8 µM [falling, single point]"
Cc1cc(C)cc(NC(=O)CCCn2c(=O)c3cccn3c3ccccc32)c1,AC50,[1],"31.6 µM [falling, single point]"
O=C(COc1ccccc1[N+](=O)[O-])N1CCC(c2nc3ccccc3o2)CC1,AC50,[1],"20 µM [falling, single point]"
Cc1c(CC(=O)NCCc2ccccc2F)c(=O)oc2cc(O)c(Cl)cc12,AC50,[1],"31.6 µM [falling, single point]"
Cc1ccc(-n2ncc3c(N(CC(C)C)CC(C)C)ncnc32)c(C)c1,AC50,[1],"31.6 µM [falling, single point]"
COC(=O)c1[nH]c2cccc(OC)c2c1NC(=O)CN1CC2(C)CC1CC(C)(C)C2 (centres undefined),AC50,[1],"15.8 µM [falling, partial curve]"
O=C(CN1CCC(n2nnc3ccccc32)CC1)NCc1cccs1,AC50,[1],"12.6 µM [falling, partial curve]"
Cc1cccc(NS(=O)(=O)c2cc(C(=O)OCC(=O)Nc3cc(C)on3)ccc2C)c1,AC50,[1],"25.1 µM [falling, partial curve]"
CC(C)S(=O)(=O)c1oc(-c2cccs2)nc1S(=O)(=O)c1ccc(F)cc1,AC50,[1],"3.16 µM [falling, partial curve]"
CCN(CCCNC(=O)c1cc(Nc2ccc(OC)cc2OC)nc2ccccc12)c1cccc(C)c1,AC50,[1],"1.58 µM [falling, single point]"
CCOc1cccc(NC(=O)C2CC(=O)N(C)C(=Nc3ccc(F)cc3)S2)c1 (centres undefined),AC50,[1],"25.1 µM [falling, partial curve]"

# Reprinted at random: 3 records from the list
smiles,measurement,setting,value
COc1ccc(CNC(=O)CCc2c(C)nc3nc(CNC(=O)OC(C)(C)C)nn3c2C)cc1,AC50,[1],"20 µM [falling, single point]"
COC(=O)c1ccc(Cn2nc(-c3ccc(C)cc3)ccc2=O)cc1,AC50,[1],"20 µM [falling, single point]"
CCOc1ccccc1NC(=O)CCc1c(C)nc2c3cccnc3nn2c1C,AC50,[1],"6.31 µM [falling, partial curve]"

# Given with tabs: part of the list above
smiles	measurement	setting	value
Cc1ccc(-n2c(SCC(=O)Nc3ccc4c(c3)OCCO4)nc3c([nH]c4ccccc43)c2=O)cc1	AC50	[1]	10 µM [rising, partial curve]
COc1cccc(C(=O)NCCc2csc(-c3cccc(F)c3)n2)c1OC	AC50	[1]	25.1 µM [falling, single point]
